Results as given in patent publication US20130280252A1, “METHOD FOR SELECTING PATIENT TO BE GIVEN DRUG FOR TREATING SEPTICEMIA” (MOCHIDA PHARMACEUTICAL CO., LTD., priority 2011, published 2013).

System: cecal ligation and puncture-induced peritonitis rabbit model (rabbit CLP model)
Assay: Rabbit CLP sepsis model, F1024S-D2(3) administered (Example 1)
Assay type: in vivo
Conditions: 10 mg/kg i.v.
Procedure: A cecal ligation and puncture-induced peritonitis rabbit model (rabbit CLP model; CLP for cecal ligation and puncture) was used as the sepsis model to verify the improvement in efficacy of the therapeutic agent for sepsis when a patient to be administered the therapeutic agent for sepsis (F1024S-D2(3)) was selected using the sCD14-ST concentration as index. The rabbit CLP model was prepared using male rabbits, New Zealand white, each weighing 1.5 kg to 1.99 kg on arrival (Kitayama Labes Co., Ltd.), which had their cecum punctured under anesthesia at two places to make holes each measuring 2 cm to release the cecal contents into the peritoneal cavity according to the method described by Keith A et al (Journal of Surgical Research, Vol. 29, 189 (1980)). In order to stabilize the postsurgical state, all the operated individuals were intravenously administered 60 mg/kg of Shiomarin (Latamoxef Sodium for administration by injection, Shionogi & Co., Ltd.) two hours after surgery.
Blood was sampled at intervals before and after surgery to measure the sCD14-ST concentrations in the blood. The sCD14-ST concentrations in the blood were measured by the method described in Example 3 in WO2009/142303. In this model, the pathology progresses within several hours, resulting in death within 7 to 8 hours after surgery in the earliest cases. Because the measured values of the sCD14-ST concentration in the blood can only be known five to six hours after blood sampling, administering the therapeutic agent only after checking the results is belated. Therefore, the administration timing of the therapeutic agent was set to two hours after surgery, and the blood sCD14-ST concentration at the time when the therapeutic agent was administered was later checked with reference to blood sCD14-ST concentration transition data. Using the respective sCD14-ST concentrations in the blood before surgery of the individuals as normal values, twice the normal values were set as the respective cut-off values. Thus, the survival rates of the cases where the sCD14-ST concentrations in the blood were at least twice the normal values at the time of administration of the therapeutic agent were compared with that of the control cases (see Table 1). The therapeutic agent-administered cases were intravenously administered 10 mg/kg of F1024S-D2(3). The control cases were intravenously administered 10 mg/kg of human immunoglobulin (hIg) in lieu of F1024S-D2(3).
The transition of the sCD14-ST concentration in the blood reflects the severity of sepsis.

B1: F1024S-D2(3): modified form of an anti-CD14 antibody in which the domain 2 of urinary trypsin inhibitor (UTI) is bound to the anti-CD14 antibody; fusion protein (antibody)
heavy: QIQLVQSGPELKKPGESVKISCKASGYTFTDYAMNWVKQAPGNGLKWMGWINTQTGKPTYADDFKQRFVFSLETSASTAYLQINNLNIEDTATYFCTRSTFYYSSYIYGWYFDFWGPGTMVTVSSASTKGPSVFPLAPCSRSTSESTAALGCLVKDYFPEPVTVSWNSGALTSGVHTFPAVLQSSGLYSLSSVVTVPSSSLGTKTYTCNVDHKPSNTKVDKRVESKYGPPGPSGPAPEFLGGPSVFLFPPKPKDTLMISRTPEVTCVVVDVSQEDPEVQFNWYVDGVEVHNAKTKPREEQFNSTYRVVSVLTVLHQDWLNGKEYKCKVSNKGLPSSIEKTISKAKGQPREPQVYTLPPSQEEMTKNQVSLTCLVKGFYPSDIAVEWESNGQPENNYKTTPPVLDSDGSFFLYSRLTVDKSRWQEGNVFSCSVMHEALHNHYTQKSLSLSLGKGSTVAACNLPIVSGPCRAFIKLWAFDAVKGKCVLFPYGGCQGNGNKFDSEKECREYCGVPGDGDEELLRFSN
light: DIVMTQSPTSISISVGERVTMNCKASQNVGSNVDWYQQKTGQSPKLLIYKASNRYTGVPDRFTGSGSGTDFTFTISNMQAVDLAVYYCMQSNTNPPWTFGGGTKLELKRTVAAPSVFIFPPSDEQLKSGTASVVCLLNNFYPREAKVQWKVDNALQSGNSQESVTEQDSKDSTYSLSSTLTLSKADYEKHKVYACEVTHQGLSSPVTKSFNRGEC
Severity Especially high
  Blood sCD14-ST concentration 3 hr after administration: 521 pg/mL
Severity High
  Blood sCD14-ST concentration 3 hr after administration: 1156 pg/mL
  Blood sCD14-ST concentration 6 hr after administration: 952 pg/mL
Severity Medium
  Blood sCD14-ST concentration 3 hr after administration: 497 pg/mL
  Blood sCD14-ST concentration 6 hr after administration: 91 pg/mL
